Some of these results come from one statement about several compounds together. At least one structure is not confirmed: it was looked up by name or label, or the drawing left a doubt.
System: A1 and A2A receptors
Assay: Estimated occupancy of A1 and A2A receptors at the concentrations used
Conditions: at the concentrations used (300 nM MRS 1097, 100 nM MRS 1191, 100 nM MRS 1523)

| Structure (SMILES) | share of the A1 and A2A receptors that could have been occupied |
| --- | --- |
| CCCOC(=O)c1c(-c2ccccc2)nc(CC)c(C(=O)SCC)c1CCC [MRS-1523] | < 1% |
| CCOC(=O)C1=C(C)NC(c2ccccc2)=C(C(=O)OCc2ccccc2)C1C#Cc1ccccc1 (racemic) [MRS-1191, 3-ethyl 5-benzyl-2-methyl-6-phenyl-4-phenylethynyl-1,4-(±)-dihydropyridine-3,5-dicarboxylate] | < 1% |

Source: US6528516B1, “Methods for reducing intraocular pressure using A3 adenosine receptor antagonists” (Trustees of the University of Pennsylvania, The Center for …, priority 1998, dated 2003)
